Results as given in article PMC10957231.
No constants are given. Whether binding was seen depends on the method and setting. In cells and extracts the contact can be indirect.

By UniProt entry, the sequences of proteins in these tests, tags left out.
UniProt P23242: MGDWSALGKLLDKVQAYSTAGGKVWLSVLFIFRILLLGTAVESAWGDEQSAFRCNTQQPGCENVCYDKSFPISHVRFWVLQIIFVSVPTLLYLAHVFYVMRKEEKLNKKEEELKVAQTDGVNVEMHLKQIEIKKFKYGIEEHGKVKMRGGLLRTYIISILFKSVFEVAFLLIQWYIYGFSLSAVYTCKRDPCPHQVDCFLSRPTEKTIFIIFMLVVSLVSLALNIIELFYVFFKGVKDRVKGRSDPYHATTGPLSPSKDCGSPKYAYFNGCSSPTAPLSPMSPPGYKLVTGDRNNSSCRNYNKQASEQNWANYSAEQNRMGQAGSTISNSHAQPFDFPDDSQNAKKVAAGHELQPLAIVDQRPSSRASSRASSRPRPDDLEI

Target: connexin43 (Gja1) (mouse) (UniProt P23242)
Experiment: co-IP; coprecipitation with the available antibodies to BT-IgSF and connexin43; sample, buffer and conditions not described

binding: no binding
B1: BT-IgSF (brain- and testis-specific Ig superfamily protein) (protein, UniProt P0C673 23-428)
chain: LEVSESPGSVQVARGQTAVLPCAFSTSAALLNLNVIWMVIPLSNANQPEQVILYQGGQMFDGALRFHGRVGFTGTMPATNVSIFINNTQLSDTGTYQCLVNNLPDRGGRNIGVTGLTVLVPPSAPQCQIQGSQDLGSDVILLCSSEEGIPRPTYLWEKLDNTLKLPPTATQDQVQGTVTIRNISALSSGLYQCVASNAIGTSTCLLDLQVISPQPRSVGVIAGAVGTGAVLIVICLALISGAFFYWRSKNKEEEEEEIPNEIREDDLPPKCSSAKAFHTEISSSENNTLTSSNTYNSRYWNNNPKPHRNTESFNHFSDLRQSFSGNAVIPSIYANGNHLVLGPHKTLVVTANRGSSPQVLPRNNGSVSRKPWPQHTHSYTVSQMTLERIGAVPVMVPAQSRAGSLV
